From PubChem BioAssay AID2685 (National Center for Advancing Translational Sciences (NCATS), 2010)
The list shows a part of the results. Shown are side measurements of this screen, not its main read-out; they come without a call. Most of these compounds were active or inconclusive in the main read-out, so they are no random draw. The note in brackets gives the kind of curve behind each potency; many fits are weak.

Assay: qHTS Assay for Lipid Storage Modulators in Drosophila S3 Cells;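 for cell number change: cells counted by Cell Tracker Red CMTPX staining in the red channel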
Details: BODIPY lipid droplet fluorescence, 18-24 h; for cell number change: measured here: cell count max response, cells fed with added oleic acid
Summary of the method: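 Laser-scanning cytometry quantifies lipid droplet accumulation (500–530 nm total intensity; droplet/cell object ratio) in oleic acid-fed (400 uM added) Drosophila S3 cells treated with a concentration series. 20 uM Triacsin C defined 100% inhibition.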

[1] = measured here: cell number channel AC50, cells fed with added oleic acid
[2] = measured here: lipid fluorescence (Fed channel) AC50, cells fed with added oleic acid

COc1cc(/C=C/C(=O)OC(C)C(=O)NC2CCCCC2C)cc(Cl)c1OC (centres undefined)
cell number change: -50%
AC50 [1]: 0.731 µM [falling, full curve]

Cc1n[nH]c(C)c1C(=O)CC1(O)C(=O)N(CCc2ccccc2)c2ccc(Cl)cc21 (centres undefined)
AC50 [2]: 2.31 µM [rising, partial curve]

COc1ccccc1CNC(=O)c1cc(-c2ccccc2)n(Cc2cc(C)no2)n1
cell number change: -5.46%
AC50 [2]: 6.51 µM [falling, single point]

CSc1ccc(/C=N/N2CCN(Cc3ccc(Cl)cc3)CC2)cc1
cell number change: 27%
AC50 [2]: 29.1 µM [rising, partial curve]

CCOC(=O)C1CCN(C(=O)C2(NC(=O)Nc3cccc(F)c3)CCCCC2)CC1
cell number change: -46.8%
AC50 [1]: 1.3 µM [falling, partial curve]
AC50 [2]: 8.2 µM [falling, partial curve]

CCOC(=O)C(=N/O)/C(C)=N/NC(C)=O
cell number change: -31.7%
AC50 [1]: 23.1 µM [falling, single point]
AC50 [2]: 23.1 µM [falling, single point]

Cc1cccc(-n2cc(CN(C)Cc3nccn3C)c(-c3cccc(F)c3)n2)c1
cell number change: -34.3%
AC50 [1]: 29.1 µM [falling, single point]
AC50 [2]: 29.1 µM [falling, single point]

CCOc1ccc2nc(NC(=O)C3CCCN(S(=O)(=O)c4c(C)noc4C)C3)sc2c1 (centres undefined)
cell number change: -40.2%
AC50 [1]: 23.1 µM [falling, single point]
AC50 [2]: 23.1 µM [falling, single point]

CC(=O)c1ccc(NC(=O)C(Cc2ccccc2)n2cccc2)cc1 (centres undefined)
cell number change: -12.9%

CCN(CC(=O)Nc1c(F)cccc1F)C(=O)c1ccc(S(=O)(=O)N2CCC(C)CC2)cc1
cell number change: -6.33%

COC(=O)[C@@]1(Cc2ccc(OC)cc2)[C@H]2c3cc(C(=O)N4CCCC4)n(Cc4ccc(OC)c(OC)c4)c3C[C@H]2CN1C(=O)c1ccccc1
cell number change: -30.1%
AC50 [1]: 23.1 µM [falling, single point]
AC50 [2]: 32.6 µM [falling, partial curve, poor fit]

CCCCOc1ccc(NC(=O)CSc2nnnn2C)cc1
AC50 [1]: 0.116 µM [falling, full curve, poor fit]
AC50 [2]: 2.91 µM [rising, full curve]

CC1(C)C(C=C(Cl)Cl)C1C(=O)N(Cc1cccc(Cl)c1)C1CCS(=O)(=O)C1 (centres undefined)
cell number change: -16.7%
AC50 [1]: 3.66 µM [rising, single point]
AC50 [2]: 7.31 µM [rising, partial curve, poor fit]

N#Cc1cc(C(=O)c2ccccc2OCC(=O)Nc2ccccc2Cl)cn(C2CCCCC2)c1=O
cell number change: 15.9%
AC50 [2]: 0.231 µM [rising, partial curve, poor fit]

Fc1ccccc1N1CCN(Cc2cccnc2)CC1
cell number change: 21%
AC50 [2]: 18.4 µM [rising, single point]

CCc1nnc(-n2nc(C)cc2-c2ccccc2)n1N
AC50 [2]: 0.259 µM [falling, full curve]

COc1ccc(C(=S)N2CCOCC2)cc1OC(=O)c1ccc(C)cc1
cell number change: 15.4%
AC50 [1]: 0.259 µM [rising, partial curve, poor fit]
AC50 [2]: 5.17 µM [falling, single point]

N#Cc1ccc(Cl)cc1NC(=O)COC(=O)c1ccc2c(c1)OCCO2
AC50 [2]: 2.59 µM [rising, partial curve]

O=C1c2cccc(OCC(=O)N3CCCc4ccccc43)c2CCN1Cc1ccc(Br)cc1
cell number change: -2.01%
AC50 [2]: 32.6 µM [falling, single point]

CCC[n+]1c(C)sc2c(OC)ccc(OC)c21
cell number change: 11.3%
AC50 [2]: 3.26 µM [rising, single point]

CCOC(=O)N1CCN(C(=O)CNC(=O)c2ccc(Br)cc2)CC1
cell number change: 41.9%
AC50 [1]: 29.1 µM [rising, single point]

C=CS(=O)(=O)c1ccc(Oc2ccc(S(=O)(=O)C=C)cc2)cc1
cell number change: -86.7%
AC50 [1]: 14.6 µM [falling, partial curve]
AC50 [2]: 5.8 µM [falling, full curve]

Oc1ccccc1C=NC1CCCCC1N=Cc1ccccc1O (centres undefined)
cell number change: -0.149%
AC50 [2]: 0.731 µM [rising, single point]

N#Cc1c(-c2cccnc2)c2c([nH]c1=S)CCCC2
cell number change: 1.03%
AC50 [2]: 0.651 µM [rising, partial curve]

CCOC(=O)N1CCN(C(=O)C2CCN(CC3CCCCC3)CC2)CC1
cell number change: 11.9%
AC50 [2]: 0.164 µM [falling, full curve]

Cc1cc(C)nc(/N=C(\N)Nc2cccc(OCc3ccccc3)c2)n1
cell number change: 9.07%

CC1(C)CC(CCNC(=O)c2ccco2)CC(C)(C)N1
cell number change: -32.1%
AC50 [1]: 32.6 µM [falling, single point]
AC50 [2]: 25.9 µM [falling, partial curve]

CC(=O)Nc1ccc(N(C)S(C)(=O)=O)cc1
cell number change: -23.5%
AC50 [1]: 2.31 µM [falling, partial curve, poor fit]
AC50 [2]: 8.2 µM [falling, partial curve, poor fit]

Cc1c(C(=O)OC2CCCCC2)[nH]c2c1C(=O)CC(C)(C)C2
cell number change: 1.09%
AC50 [2]: 3.66 µM [rising, single point]

CCc1c(C)sc(NC(=O)CSc2nc3c(c(C(F)(F)F)n2)CCc2ccccc2-3)c1C#N
AC50 [1]: 0.092 µM [rising, full curve, poor fit]
AC50 [2]: 0.082 µM [rising, full curve, poor fit]

CC(=O)Nc1ccc(NS(=O)(=O)c2cc(-c3cnc(C4CC4)o3)ccc2C)cc1
cell number change: -11.6%

COc1ccccc1CNC(=O)c1ccc(Br)o1
cell number change: 4.95%
AC50 [2]: 7.31 µM [falling, single point]

COc1ccccc1NCC(=O)N/N=C/c1sccc1C
cell number change: -1.59%

S=C(NCc1ccco1)NCc1ccccc1Cl
cell number change: -4.53%
AC50 [1]: 7.31 µM [rising, partial curve]
AC50 [2]: 2.06 µM [rising, partial curve, poor fit]

CCCCCOC(=O)C1C(c2ccccc2)C(C(=O)O)C1c1ccccc1 (centres undefined)
cell number change: 33%
AC50 [1]: 29.1 µM [rising, single point]
AC50 [2]: 0.326 µM [rising, full curve, poor fit]
